{"source": "PubChem BioAssay AID504774 (Drosophila RNAi Screening Center, 2011)", "aim": "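Fly genes whose loss alters survival after alkylation damage to DNA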 (primary screen)", "cell system": "Drosophila Kc167 cells", "reagents": "long dsRNA against Drosophila genes, about 0.25 µg dsRNA per well", "timing": "about 6 days: 3 days knock-down, then 3 days with or without MMS", "challenge": "methyl methanesulphonate 0.004% (w/v) for 3 days after knock-down", "read-out": "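Viability in wells given MMS, read as ATP luminescence, normalised by quantiles plate by plate and averaged across replicates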", "reading the numbers": "mean viability with MMS and viability with MMS: higher = more surviving cells after MMS", "note": "In all, the deposit lists about 23,000 reagents; this is a random part of those that have a named target and a result. 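Values are quantile-normalised luminescence on an arbitrary scale; higher means more cells surviving MMS.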 A plus sign joins genes that one reagent is predicted to hit. Further read-outs or replicates are left out here. No sequences are given here."}
{"predicted target": "amx (almondex)", "PubChem SID": "SID104198528", "mean viability with MMS": 3.36e6, "viability with MMS, replicate 1": 3.82e6}
{"predicted target": "att-ORFB + DPCoAC", "PubChem SID": "SID104195348", "mean viability with MMS": 3.59e6, "viability with MMS, replicate 1": 4.06e6}
{"predicted target": "Elp5 (Elongator complex protein 5)", "PubChem SID": "SID104188339", "mean viability with MMS": 3.55e6, "viability with MMS, replicate 1": 4.06e6}
{"predicted target": "siz (schizo)", "PubChem SID": "SID104191414", "mean viability with MMS": 3.46e6, "viability with MMS, replicate 1": 3.92e6}
{"predicted target": "siz (schizo)", "PubChem SID": "SID104191481", "mean viability with MMS": 3.39e6, "viability with MMS, replicate 1": 3.80e6}
{"predicted target": "siz (schizo)", "PubChem SID": "SID104191482", "mean viability with MMS": 3.35e6, "viability with MMS, replicate 1": 3.70e6}
{"predicted target": "Tsp42Ef (Tetraspanin 42Ef)", "PubChem SID": "SID104185983", "mean viability with MMS": 3.59e6, "viability with MMS, replicate 1": 4.08e6}
{"predicted target": "Cyp308a1 (Cytochrome P450 308a1)", "PubChem SID": "SID104200030", "mean viability with MMS": 3.46e6, "viability with MMS, replicate 1": 3.98e6}
{"predicted target": "GEFmeso (Guanine nucleotide exchange factor in mesoderm)", "PubChem SID": "SID104186540", "mean viability with MMS": 3.49e6, "viability with MMS, replicate 1": 4.01e6}
{"predicted target": "GEFmeso (Guanine nucleotide exchange factor in mesoderm)", "PubChem SID": "SID104186732", "mean viability with MMS": 3.52e6, "viability with MMS, replicate 1": 3.94e6}
{"predicted target": "GEFmeso (Guanine nucleotide exchange factor in mesoderm)", "PubChem SID": "SID104201208", "mean viability with MMS": 3.52e6, "viability with MMS, replicate 1": 4.04e6}
{"predicted target": "fax (failed axon connections)", "PubChem SID": "SID104191137", "mean viability with MMS": 3.42e6, "viability with MMS, replicate 1": 3.89e6}
{"predicted target": "CG14692", "PubChem SID": "SID104194707", "mean viability with MMS": 3.52e6, "viability with MMS, replicate 1": 4.03e6}
{"predicted target": "PolD3 (DNA polymerase delta subunit 3)", "PubChem SID": "SID104181753", "mean viability with MMS": 3.66e6, "viability with MMS, replicate 1": 4.07e6}
{"predicted target": "da", "PubChem SID": "SID104183309", "mean viability with MMS": 3.41e6, "viability with MMS, replicate 1": 4.12e6}
{"predicted target": "CG14132", "PubChem SID": "SID104189928", "mean viability with MMS": 3.72e6, "viability with MMS, replicate 1": 4.23e6}
{"predicted target": "Rab9Db + Rab9Fa", "PubChem SID": "SID104198237", "mean viability with MMS": 3.58e6, "viability with MMS, replicate 1": 4.06e6}
{"predicted target": "nrm (neuromusculin)", "PubChem SID": "SID104191389", "mean viability with MMS": 3.35e6, "viability with MMS, replicate 1": 3.88e6}
{"predicted target": "nrm (neuromusculin)", "PubChem SID": "SID104191391", "mean viability with MMS": 3.34e6, "viability with MMS, replicate 1": 3.83e6}
{"predicted target": "nrm (neuromusculin)", "PubChem SID": "SID104191689", "mean viability with MMS": 3.45e6, "viability with MMS, replicate 1": 3.89e6}
{"predicted target": "CG3982", "PubChem SID": "SID104190186", "mean viability with MMS": 2.99e6, "viability with MMS, replicate 1": 3.47e6}
{"predicted target": "CG3982", "PubChem SID": "SID104202496", "mean viability with MMS": 3.65e6, "viability with MMS, replicate 1": 4.15e6}
{"predicted target": "CG5961", "PubChem SID": "SID104195719", "mean viability with MMS": 3.44e6, "viability with MMS, replicate 1": 3.81e6}
{"predicted target": "CG15649", "PubChem SID": "SID104184032", "mean viability with MMS": 3.54e6, "viability with MMS, replicate 1": 3.98e6}

A portion from the list above:
{"predicted target": "PolD3 (DNA polymerase delta subunit 3)", "PubChem SID": "SID104181753", "mean viability with MMS": 3.66e6, "viability with MMS, replicate 1": 4.07e6}
{"predicted target": "da", "PubChem SID": "SID104183309", "mean viability with MMS": 3.41e6, "viability with MMS, replicate 1": 4.12e6}
{"predicted target": "CG14132", "PubChem SID": "SID104189928", "mean viability with MMS": 3.72e6, "viability with MMS, replicate 1": 4.23e6}
{"predicted target": "Rab9Db + Rab9Fa", "PubChem SID": "SID104198237", "mean viability with MMS": 3.58e6, "viability with MMS, replicate 1": 4.06e6}
